Measured values: paper PMC5357909
Weaker means in comparison with the reference protein, sequence or condition of that experiment.

Biological target: EhRNaseIII194 (Entamoeba histolytica) (UniProt C4LU64)
Experiment: EMSA
Conditions: 5 mM Mg2+, low affinity (shift in lane 8, 1e-3 M); EMSA (1x): 30 mM Tris-HCl pH 7.5, 30 mM NaCl, 5 mM MgCl2, 1 mM DTT, 0.1 mM EDTA, 5% glycerol; room temperature 10 min then ice 20 min; 6% native PAGE; recombinant protein; protein details: His-Sumo removed by Ulp1

Sequence: GGGAGAAACGCGGCCUCUUCUUAUUUAUGGCGACAUGUUGUGCCUCUCCC / GGGAGAGGCACAACAUGUCGCCAUAAAUAAGAAGAGGCCGCGUUUCUCCC [RNA50]
- binding result: binds more weakly
